Measurements taken from paper doi:10.1101/2025.04.11.648483.
No constants are given. Whether binding was seen depends on the method and setting. Binding calls can cover weak binding; strength is not graded here. For part of these data: Where a sequence is shown, tags or fusion partners need not be part of it. Blank lines part the entries; values can stand above or below the substance they belong to.

Amino acid sequences for entries named in this document (tags omitted). A change or cut given only in a name is not applied to a line headed by its entry.
UniProt O01819: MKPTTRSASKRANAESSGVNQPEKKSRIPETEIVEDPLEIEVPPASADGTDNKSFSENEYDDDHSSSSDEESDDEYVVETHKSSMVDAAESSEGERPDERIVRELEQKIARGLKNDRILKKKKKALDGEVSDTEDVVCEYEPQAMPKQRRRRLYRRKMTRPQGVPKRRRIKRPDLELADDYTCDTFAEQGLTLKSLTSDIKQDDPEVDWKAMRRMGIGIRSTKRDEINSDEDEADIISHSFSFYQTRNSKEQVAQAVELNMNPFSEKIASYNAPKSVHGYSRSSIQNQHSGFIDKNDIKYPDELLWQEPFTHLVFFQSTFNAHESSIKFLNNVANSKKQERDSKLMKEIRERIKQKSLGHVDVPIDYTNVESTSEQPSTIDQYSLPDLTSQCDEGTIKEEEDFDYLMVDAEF
UniProt A0A0K3AR81: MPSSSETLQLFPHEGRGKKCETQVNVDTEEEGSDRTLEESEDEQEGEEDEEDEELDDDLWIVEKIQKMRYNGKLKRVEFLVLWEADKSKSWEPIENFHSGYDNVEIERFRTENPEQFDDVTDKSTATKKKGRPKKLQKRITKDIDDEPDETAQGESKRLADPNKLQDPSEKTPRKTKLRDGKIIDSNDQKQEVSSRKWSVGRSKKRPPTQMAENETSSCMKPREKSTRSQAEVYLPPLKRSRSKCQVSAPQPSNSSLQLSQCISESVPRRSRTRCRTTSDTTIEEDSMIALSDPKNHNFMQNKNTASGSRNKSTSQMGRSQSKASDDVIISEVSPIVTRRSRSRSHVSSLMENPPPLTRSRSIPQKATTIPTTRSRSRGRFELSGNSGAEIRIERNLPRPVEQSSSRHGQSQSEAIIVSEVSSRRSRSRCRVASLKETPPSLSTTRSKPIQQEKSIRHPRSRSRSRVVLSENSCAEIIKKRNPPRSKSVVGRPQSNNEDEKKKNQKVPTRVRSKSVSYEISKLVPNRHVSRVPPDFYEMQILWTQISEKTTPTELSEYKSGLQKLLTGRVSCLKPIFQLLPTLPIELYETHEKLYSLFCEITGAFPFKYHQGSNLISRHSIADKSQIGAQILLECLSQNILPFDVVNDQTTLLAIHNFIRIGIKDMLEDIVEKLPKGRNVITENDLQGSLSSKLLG

Assays:
Test in all cases: two-hybrid
[1] = target: TOFU-4 (yeast two-hybrid fusion) (C. elegans) (UniProt O01819)
[2] = target: T1, TAF-12 histone-fold domain (yeast two-hybrid fusion) (C. elegans) (UniProt Q9U226)
T1 sequence: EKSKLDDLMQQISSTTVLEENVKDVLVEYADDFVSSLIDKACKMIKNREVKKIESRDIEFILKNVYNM

[3] = target: T2, PRDE-1 (yeast two-hybrid fusion) (C. elegans) (UniProt O17828)
T2 sequence: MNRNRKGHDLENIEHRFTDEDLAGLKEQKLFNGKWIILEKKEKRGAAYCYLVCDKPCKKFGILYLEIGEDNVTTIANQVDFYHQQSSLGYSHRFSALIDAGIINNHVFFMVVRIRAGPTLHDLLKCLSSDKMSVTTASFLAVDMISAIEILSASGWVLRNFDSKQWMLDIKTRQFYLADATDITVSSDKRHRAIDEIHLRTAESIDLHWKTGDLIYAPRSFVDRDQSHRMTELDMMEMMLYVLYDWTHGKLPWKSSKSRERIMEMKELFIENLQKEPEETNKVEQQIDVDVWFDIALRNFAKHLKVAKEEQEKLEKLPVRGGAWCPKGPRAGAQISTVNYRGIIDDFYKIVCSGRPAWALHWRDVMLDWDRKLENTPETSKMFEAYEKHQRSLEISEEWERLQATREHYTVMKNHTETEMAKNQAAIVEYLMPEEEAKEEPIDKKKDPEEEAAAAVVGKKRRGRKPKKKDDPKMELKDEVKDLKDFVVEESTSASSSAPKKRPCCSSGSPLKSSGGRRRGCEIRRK

binding [1]: binds
Substance: UAD-2 (yeast two-hybrid fusion) (from UniProt A0A0K3AR81 1-696)

binding [2]: binds
Substance: UAD-2 C-terminal domain (yeast two-hybrid fusion) (C. elegans) (domain or fragment)

binding [3]: binds
Substance: TOFU-4 (yeast two-hybrid fusion) (from UniProt O01819)
